According to PubChem BioAssay AID540276 (National Center for Advancing Translational Sciences (NCATS), 2011):
“And” between values parts separate entries of the source, which are not always exact repeats. Equal entries are not always repeated. Screen size: about 300,000 compounds; about 5,400 (1.8%) were called active. The shares of active, inactive and inconclusive entries below differ from those in the screen. Calls come from the whole dose curve; tested in HEK293 cells. Where the call is inconclusive, the potency comes from a doubtful curve fit.

Assay: qHTS for inhibitors of binding or entry into cells for Marburg Virus
Settings: Marburg virus pseudotyped entry inhibition, cell reporter; activity change, negative = inhibition: at 37.8 µM (top of the series) unless noted
% is set by controls: 0 for no effect and ±100 for the full control effect; potency is the fitted concentration of half-maximal effect.

Q: For `Cc1nnc(-c2cccc(Br)c2)c2cn(-c3ccc(Br)cc3)nc12`, which Potency is on record?
A: inconclusive: 35.5 µM [inhibitor, single point]

Q: With `Cc1cc(C)cc(Nc2nc3ccc(C)cc3n3cnnc23)c1` as the molecule, how does the Potency read?
A: inconclusive: 15.8 µM [inhibitor, single point]

Q: For `CN1CCN(C2Cc3ccccc3Sc3cc(C(F)(F)F)ccc32)CC1` (centres undefined), which Potency is on record?
A: inconclusive: 5.62 µM [inhibitor, full curve, poor fit]

Q: With `Cc1ccc(-c2csc(NC(=O)c3cccc([N+](=O)[O-])c3)n2)cc1` as the molecule, how does the Potency read?
A: inactive

Q: For `Cc1cc(SCC(=O)N2CCCC2)nc2ccccc12`, which Potency is on record?
A: inactive

Q: Which Potency does the source give for `Cc1cc(C)n(CC(O)Cn2c3ccccc3c3ccccc32)c(=O)n1` (centres undefined) here?
A: inactive

Q: With `O=C(/C=C/c1ccccc1Cl)N(Cc1ccc(Cl)cc1)C1CCS(=O)(=O)C1` (centres undefined) as the molecule, how does the Potency read?
A: inconclusive: 29.1 µM [inhibitor, single point]

Q: Which Potency does the source give for `CC(C)(C)NC(=O)CCSc1nc(-c2ccc3c(c2)OCO3)cc(C(F)(F)F)n1` here?
A: inconclusive: 5.01 µM [inhibitor, single point]

Q: With `Cn1c(=O)c(C(=O)COc2ccc(F)cc2Cl)c(N)n(Cc2ccccc2)c1=O` as the molecule, how does the Potency read?
A: inconclusive: 22.4 µM [inhibitor, partial curve, poor fit]

Q: With `c1ccc2[nH]c(-c3ccc4c(c3)OCO4)nc2c1` as the molecule, how does the Potency read?
A: inconclusive: 1.41 µM [inhibitor, partial curve, poor fit]

Q: Which Potency does the source give for `COc1ccc(C(=O)OCC(=O)NCCN2C(=O)CSC2=O)cc1[N+](=O)[O-]` here?
A: inconclusive: 35.5 µM [activator, single point]

Q: For `COc1ccc(N=C2S/C(=C\c3cccs3)C(=O)N2CC(C)C)cc1`, which Potency is on record?
A: inactive

Q: Which Potency does the source give for `CN(C1=C(NC(=O)c2ccc(Cl)cc2)C(=O)c2ccccc2C1=O)c1ccccc1` here?
A: inconclusive: 35.5 µM [inhibitor, single point]

Q: Which Potency does the source give for `CCOC(=O)C1=C(C)C(c2cccc(Oc3ccccc3)c2)NC(=S)N1` (centres undefined) here?
A: inconclusive: 1.58 µM [inhibitor, partial curve, poor fit]

Q: Which Potency does the source give for `O=C(COC(=O)c1cccc2c1C(=O)c1ccccc1C2=O)NC1CCCCC1` here?
A: inconclusive: 7.08 µM [inhibitor, partial curve, poor fit]

Q: For `CN(CC(=O)Nc1cccc(F)c1)C(=O)c1cc([N+](=O)[O-])ccc1N1CCCCC1`, which Potency is on record?
A: inconclusive: 3.98 µM [activator, single point]

Q: With `O=C(CSc1nnc(-c2ccccc2)o1)N1CCCCC1` as the molecule, how does the Potency read?
A: inconclusive: 0.708 µM [activator, full curve, poor fit]

Q: With `O=[N+]([O-])c1ccc(N2CCCCC2)c(-c2nn[nH]n2)c1` as the molecule, how does the Potency read?
A: inactive

Q: For `O=C(Nc1cccc(Cl)c1)c1cnccn1`, which Potency is on record?
A: inactive

Q: For `O=C(NCCCCCCNC(=O)C1CCCC1)C1CCCC1`, which Potency is on record?
A: inactive

Q: With `CCc1ccc(OCC(=O)Nc2ccc3oc(-c4ccc(OC)cc4)nc3c2)cc1` as the molecule, how does the activity change, negative = inhibition read?
A: inconclusive: 65% [activator] [at 46.1 µM]

Q: With `CCC(=O)Nc1cccc(C(=O)/C=C/c2cc(Br)ccc2OC)c1` as the molecule, how does the Potency read?
A: inconclusive: 20 µM [inhibitor, partial curve, poor fit]

Q: For `COc1ccc2nc(C)c3c(c2c1)OC(C)C3` (centres undefined), which Potency is on record?
A: inactive

Q: Which Potency does the source give for `Cc1ccc(S(=O)(=O)NNC(=O)CCC(=O)Nc2ccc(C)cc2C)cc1` here?
A: inactive

Q: With `CCCCN1CN(Cc2ccccc2)CNC1=S` as the molecule, how does the Potency read?
A: inactive

Q: With `CC(=O)N1CCc2cc(S(=O)(=O)N3CCN(c4ccc(C)cc4)C(C)C3)ccc21` (centres undefined) as the molecule, how does the Potency read?
A: inconclusive: 35.5 µM [inhibitor, single point]

Q: For `COC(=O)Cn1cc([N+](=O)[O-])nc1C`, which Potency is on record?
A: inactive

Q: Which Potency does the source give for `COc1ccc(CCN2C(=S)N(c3ccc(Cl)cc3)C(=O)C2CC(N)=O)cc1OC` (centres undefined) here?
A: inconclusive: 35.5 µM [inhibitor, single point]

Q: With `O=C(Nc1c(F)cc(F)cc1F)c1cccn(Cc2ccccc2)c1=O` as the molecule, how does the Potency read?
A: inconclusive: 31.6 µM [inhibitor, single point]

Q: With `Cc1ccc(S(=O)(=O)c2nc(C(C)(C)C)oc2N2CCOCC2)cc1` as the molecule, how does the Potency read?
A: inactive

Q: With `Cc1ccc(OCc2cc(=O)n3cc(C)sc3n2)c(C)c1` as the molecule, how does the Potency read?
A: inactive

Q: With `COc1ccccc1N(C)S(=O)(=O)c1ccc(C(=O)NC2CCCCCC2)cc1` as the molecule, how does the Potency read?
A: inconclusive: 22.4 µM [inhibitor, single point]

Q: With `Cn1c(=O)c2c(nc(N3CCN(c4ccccn4)CC3)n2Cc2ccccc2Cl)n(C)c1=O` as the molecule, how does the Potency read?
A: inconclusive: 16.4 µM [inhibitor, single point]

Q: Which Potency does the source give for `Cc1cccc(NC(=O)/C(C#N)=C\c2cccnc2)c1` here?
A: inconclusive: 11.6 µM [inhibitor, partial curve]

Q: With `COc1ccc(-n2c(=S)[nH]c3cc(C(=O)Nc4ccc(OC)c(OC)c4)ccc3c2=O)cc1` as the molecule, how does the Potency read?
A: inconclusive: 5.62 µM [inhibitor, single point]

Q: For `CCC(=O)Nc1nc(C)c(-c2csc(Nc3ccccn3)n2)s1`, which Potency is on record?
A: inconclusive: 7.08 µM [inhibitor, partial curve, poor fit]

Q: With `O=S(=O)(NCCc1ccccc1)c1ccc(Br)s1` as the molecule, how does the Potency read?
A: inconclusive: 0.398 µM [inhibitor, partial curve, poor fit]

Q: With `CN(c1ccc(C(=O)NCc2ccncc2)cc1)S(=O)(=O)c1ccc(Cl)cc1` as the molecule, how does the Potency read?
A: inconclusive: 3.98 µM [inhibitor, partial curve, poor fit]

Q: Which Potency does the source give for `CC12CCC(C(=O)NCCCN3CCOCC3)(OC1=O)C2(C)C` (centres undefined) here?
A: inconclusive: 1.3 µM [activator, single point]

Q: Which Potency does the source give for `CC(=O)c1cccc(CN2CCc3ccc(NC(=O)C4CCCO4)cc3C2)c1` (centres undefined) here?
A: inactive

Q: Which Potency does the source give for `COc1ccc(NC(=S)N2CCCC2)cc1` here?
A: inconclusive: 0.398 µM [activator, full curve]

Q: Which Potency does the source give for `Cc1cc(NC(=O)CSc2ccc(Cl)cc2)no1` here?
A: inconclusive: 0.0146 µM [inhibitor, full curve, poor fit]

Q: For `c1ccc2sc(NC3=NCN(CCN4CCOCC4)CN3)nc2c1`, which Potency is on record?
A: inconclusive: 0.562 µM [inhibitor, full curve, poor fit]

Q: With `CC1CCCN(Cc2c(O)ccc3c(=O)c(-c4ccc(Cl)cc4)c(C(F)(F)F)oc23)C1` (centres undefined) as the molecule, how does the Potency read?
A: inactive

Q: For `CCOC(=O)N1CCN(C(=O)C2CCN(C(=O)c3ccc([N+](=O)[O-])cc3)CC2)CC1`, which Potency is on record?
A: inactive

Q: For `Cc1cccc(C(=O)Nc2ccc(N3CCN(S(C)(=O)=O)CC3)cc2)c1`, which Potency is on record?
A: inconclusive: 6.31 µM [activator, single point]

Q: With `CCC(C(=O)NC(C)(C)C)N(C(=O)Cn1nnc(-c2ccccc2F)n1)c1cccc2c1CCCC2` (centres undefined) as the molecule, how does the Potency read?
A: inconclusive: 25.9 µM [inhibitor, partial curve, poor fit]

Q: Which Potency does the source give for `CCCC=Cc1ccc(CN2C(C)C(=O)N(Cc3cn(CC4CCCCC4)nn3)CCS2(=O)=O)cc1` (centres undefined) here?
A: inconclusive: 19.9 µM [inhibitor, partial curve, poor fit]

Q: For `CCC1(c2ccc(F)cc2)NC(=O)N(CC(=O)N2CC(=O)Nc3ccccc32)C1=O` (centres undefined), which Potency is on record?
A: inconclusive: 35.5 µM [activator, single point]

Q: For `Cc1c(C(=O)Nc2ccccc2)cn2c(nc3ccccc32)c1C#N`, which Potency is on record?
A: inconclusive: 11.2 µM [inhibitor, partial curve, poor fit]

Q: Which Potency does the source give for `O=C(Nc1cccc2cccnc12)c1cccnc1` here?
A: inconclusive: 29.1 µM [activator, single point]

Q: For `O=C(OCc1ccc([N+](=O)[O-])cc1)C1CC(=O)N(CCc2ccccc2)C1` (centres undefined), which Potency is on record?
A: inactive

Q: Which Potency does the source give for `Cc1nc2ccccc2c2c1C(=O)N(C)C2=O` here?
A: inconclusive: 11.6 µM [activator, partial curve, poor fit]

Q: For `CCOc1cc(C(=O)N2CCCN(C)CC2)cc(OCC)c1OCC`, which Potency is on record?
A: inconclusive: 0.794 µM [inhibitor, full curve]

Q: For `CCC1C(=O)n2nc(-c3ccccc3)cc2N=C1C` (centres undefined), which Potency is on record?
A: inactive

Q: Which Potency does the source give for `Cc1ccccc1OCC(=O)OCC(=O)Nc1cc(S(=O)(=O)N2CCCCC2)ccc1Cl` here?
A: inactive

Q: With `CS(=O)(=O)Nc1cccc(C2=NN(S(=O)(=O)c3ccccc3)C(c3cccs3)C2)c1` (centres undefined) as the molecule, how does the Potency read?
A: inconclusive: 18.3 µM [inhibitor, single point]

Q: With `FC(F)(F)c1cccc(Cc2noc(CN3CCCC(CN4CCCC4)C3)n2)c1` (centres undefined) as the molecule, how does the Potency read?
A: inconclusive: 35.5 µM [inhibitor, single point]

Q: With `O=c1[nH]c(=O)n(Cc2ccccc2)c(O)c1C=Nc1ccc(CN2CCOCC2)cc1` as the molecule, how does the Potency read?
A: inactive

Q: For `COc1ccc(/C=C2/CCC(CN3CCOCC3)C2=O)cc1` (centres undefined), which Potency is on record?
A: inconclusive: 7.08 µM [inhibitor, partial curve]

Q: For `Cc1ccccc1C(=O)c1c[nH]c(C(=O)NCC2CCCO2)c1` (centres undefined), which Potency is on record?
A: inactive

Q: Which Potency does the source give for `N#Cc1c(-c2ccccc2)cc(-c2cccs2)nc1SCC(=O)O` here?
A: inconclusive: 6.31 µM [activator, single point]

Q: For `CN(CC(=O)Nc1ccccc1Cl)C(=O)COC(=O)c1ccc(S(=O)(=O)C(F)F)cc1`, which Potency is on record?
A: inactive

Q: For `CC(c1ccccc1)N(CCC(c1ccccc1)C1CCOC(C)(C)C1)C(=O)c1ccco1` (centres undefined), which Potency is on record?
A: active: 3.98 µM

Q: For `COc1cccc(Cn2cnc3c2c(=O)n(C)c(=O)n3C)c1`, which Potency is on record?
A: inconclusive: 7.08 µM [inhibitor, partial curve, poor fit]

Q: Which Potency does the source give for `COc1ccc(Br)cc1CN1CCN(C(=O)c2ccc(OC)c(OC)c2)CC1` here?
A: inconclusive: 15.8 µM [inhibitor, single point]

Q: For `COc1ccc(N2C3=C(CC4=C2CC(C)(C)CC4=O)C(=O)CC(C)(C)C3)cc1`, which Potency is on record?
A: inactive and inconclusive: 29.1 µM [inhibitor, single point]

Q: Which Potency does the source give for `O=C(COC(=O)c1ccc2ccccc2n1)Nc1cccc(S(=O)(=O)NC2=NCCCCC2)c1` here?
A: inactive

Q: Which Potency does the source give for `Cc1cccc(CSC2=CS(=O)(=O)c3ccccc3N2)c1` here?
A: inconclusive: 0.1 µM [inhibitor, full curve, poor fit]
